Results from one PubChem assay

The results are deposited in PubChem (AID686998; Broad Institute, 2013).

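Alamar Blue readout of Cryptococcus neoformans cell growth following a 24 h incubation with each compound.
Percent change in signal, scaled so neutral controls are 0 and positive controls are -100; more negative means stronger growth inhibition.
Inconclusive is filed for a poor-quality curve fit or a flat fit between -70% and -30%; active requires a fitted AC50 at most twice the top valid dose.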

Values are in %.
All entries here are filed as inconclusive.
These entries are mostly ones the record files as inconclusive; other results of the assay are not listed here.

compound	tested on / at	activity change (%)
Cc1ccc(NC(=O)C2(N3CCC3=O)CCCCC2)cc1	at 35 µM (top of the series)	-60.22
Cc1ccc(S(=O)(=O)N[C@H]2CC[C@H](CC(=O)NCc3ccccc3F)O[C@H]2CO)cc1	at 35 µM (top of the series)	-35.07
O=c1nc(-c2ccccc2)c2ccccc2[nH]1	at 35 µM (top of the series)	-47.52
CC(=O)c1ccc(N2CCN(C(=O)Cc3cccs3)CC2)cc1	at 35 µM (top of the series)	-1.257
Cc1cccc2sc(N3CCN(C(=O)c4cccs4)CC3)nc12	at 35 µM (top of the series)	-26.19
Cc1ccccc1NC(=O)C1CCC(=O)N1 (stereo not given)	at 35 µM (top of the series)	-13.14
O=C(CN(c1ccccc1)S(=O)(=O)c1ccc(F)cc1)NC1CCCCCC1	at 35 µM (top of the series)	5.788
CC(C)C(=O)N1CCC1(C)C(=O)Nc1ccccc1C(C)(C)C (stereo not given)	at 50 µM (top of the series)	-42.59
Cc1ccc(N(CC(=O)NCCSCc2ccco2)S(=O)(=O)c2ccc(F)cc2)cc1	at 35 µM (top of the series)	-53.91
CCc1ccc(NC(=O)[C@H](C)NC(=O)C2CCN(C(=O)[C@@H](N)C(C)C)CC2)cc1	at 35 µM (top of the series)	-52.07
COc1ccc(NC(=O)N(C)C[C@H]2OCCCC[C@@H](C)Oc3ccc(NC(=O)c4ccccc4)cc3C(=O)N([C@H](C)CO)C[C@H]2C)cc1	at 35 µM (top of the series)	-30.11
O=C(C[C@@H]1CC[C@H](NC(=O)Cc2ccccn2)[C@@H](CO)O1)NCCc1ccccc1	at 35 µM (top of the series)	-47.59
CC(C)(C)SCCNC(=O)CN(c1ccccc1)S(=O)(=O)c1ccccc1	at 35 µM (top of the series)	-1.309
CCOc1cc(CNC)ccc1OCC(=O)NC(C)(C)C	at 35 µM (top of the series)	-38.42
Cc1ccccc1N(CC(=O)NCCSC1CCCCC1)S(=O)(=O)c1ccccc1	at 35 µM (top of the series)	-59.5
COc1ccc(C(=O)NC(=S)Nc2cccc(Cl)c2N2CCOCC2)cc1[N+](=O)[O-]	at 35 µM (top of the series)	-14.76
Cc1ccc(N(C(=O)C2CCC(=O)N2)C2(C(=O)NC3CCCC3)CCCCC2)cc1 (stereo not given)	at 35 µM (top of the series)	-39.53
CCOC(=O)NCc1ccc2[nH]c(C)cc2c1	at 35 µM (top of the series)	-50.28
Cc1ccc(C(=O)NC(=S)Nc2ccc(N3CCOCC3)cc2)cc1	at 35 µM (top of the series)	-56.06
O=C(C[C@@H]1CC[C@@H](NC(=O)c2cccnc2)[C@@H](CO)O1)NCCN1CCCCC1	at 35 µM (top of the series)	-31.87
Cc1cccc(C)c1NC(=O)CN(C)C(=O)CC1CC2CCC1C2 (stereo not given)	at 35 µM (top of the series)	-41.43
C[C@H]1CN([C@@H](C)CO)C(=O)c2cc(C#CCN(C)C)cnc2O[C@@H]1CN(C)C(=O)Nc1cccc(F)c1	at 35 µM (top of the series)	-24.74
C[C@H]1CN([C@@H](C)CO)C(=O)Cc2cc(NS(=O)(=O)c3cn(C)cn3)ccc2O[C@@H]1CN(C)Cc1ccc(Oc2ccccc2)cc1	at 35 µM (top of the series)	-6.241
COc1cc(C(=O)NC(=S)Nc2ccccc2N2CCOCC2)cc(OC)c1OC	at 35 µM (top of the series)	-43.68
O=C(c1ccco1)N1N=C(c2cccs2)CC1c1cc([N+](=O)[O-])ccc1O (stereo not given)	at 35 µM (top of the series)	-42.92
O=C(NC(=S)Nc1ccccc1N1CCOCC1)c1ccc([N+](=O)[O-])cc1	at 35 µM (top of the series)	-32.75
C[C@H]1CN([C@@H](C)CO)S(=O)(=O)c2ccc(Br)cc2O[C@H]1CN(C)S(=O)(=O)c1ccccc1F	at 35 µM (top of the series)	5.244
O=S1(=O)CCC(N=Cc2cc(Br)ccc2O)C1 (stereo not given)	at 35 µM (top of the series)	-19.43
Cc1ccc(NC(=O)C2CCC(=O)N2)cc1C (stereo not given)	at 35 µM (top of the series)	-44.54
CC(C)c1ccccc1NC(=S)NN(Cc1ccccc1)c1ccccc1	at 35 µM (top of the series)	-50.76
Cc1ccc(-n2ncc3c(SCC(=O)NNC(=O)C(C)C)ncnc32)cc1	at 35 µM (top of the series)	-48.54

Some entries from above, unchanged:

compound,tested on / at,activity change (%)
Cc1ccc(S(=O)(=O)N[C@H]2CC[C@H](CC(=O)NCc3ccccc3F)O[C@H]2CO)cc1,at 35 µM (top of the series),-35.07
Cc1ccc(N(C(=O)C2CCC(=O)N2)C2(C(=O)NC3CCCC3)CCCCC2)cc1 (stereo not given),at 35 µM (top of the series),-39.53
O=C(c1ccco1)N1N=C(c2cccs2)CC1c1cc([N+](=O)[O-])ccc1O (stereo not given),at 35 µM (top of the series),-42.92
COc1cc(C(=O)NC(=S)Nc2ccccc2N2CCOCC2)cc(OC)c1OC,at 35 µM (top of the series),-43.68